{
  "source": "the supplement of paper PMC8104966",
  "note": "Some of the results follow. Single values are uncertain here, since repeats match poorly.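 U2OS cells expressing ACE2 were combined with U2OS cells expressing full-length spike, and imaging quantified fusion as the fraction of nuclei displaying both cell types' fluorescent markers. Non-toxic compounds with a fusion z-score under -3, i.e., over three standard deviations below the plate's DMSO wells, are called inhibitory hits.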",
  "data": [
    {"system": "U2OS ACE2 x SARS-CoV-2 spike co-culture", "assay": "cell-cell fusion (fraction fused) z-score vs plate DMSO control; higher = more fusion", "conditions": "30 µM; 5 h; toxicity class: non-toxic, passed QC", "values": [
      {"compound": "CN1CCc2cc(Cl)c(O)cc2[C@@H](c2ccccc2)C1.Cl", "cell-cell fusion (z-score)": "inactive: 2.84"},
      {"compound": "Cl.NC1=NCC2c3ccccc3Cc3ccccc3N12", "note": "(stereo not drawn) [Epinastine hydrochloride]", "cell-cell fusion (z-score)": "inactive: 4.75"},
      {"compound": "COc1ccc(NC(=O)c2ccc(C(=N)N(C)C)cc2)c(C(=O)Nc2ccc(Cl)cn2)c1.Cl", "cell-cell fusion (z-score)": "inactive: -1.18"},
      {"compound": "C[C@]12CCC(=O)C=C1[C@@H]1C[C@@H]1[C@H]1[C@@H]3[C@@H]4C[C@@H]4[C@@]4(CCC(=O)O4)[C@@]3(C)CC[C@@H]12", "note": "[Drospirenone]", "cell-cell fusion (z-score)": "inactive: 3.76"},
      {"compound": "O=C(O)CCc1nc(-c2ccccc2)c(-c2ccccc2)o1", "note": "[Oxaprozin]", "cell-cell fusion (z-score)": "inactive: 2.25"},
      {"compound": "CC1CN(c2c(F)c(N)c3c(=O)c(C(=O)O)cn(C4CC4)c3c2F)C[C@H](C)N1", "note": "(stereo partly drawn)", "cell-cell fusion (z-score)": "inactive: 2.33"},
      {"compound": "CC(C)C[C@H](NC(=O)[C@@H](O)[C@H](N)Cc1ccccc1)C(=O)O.Cl", "note": "[Bestatin hydrochloride]", "cell-cell fusion (z-score)": "inactive: 1.71"},
      {"compound": "Nc1[nH]c(=O)ncc1F", "note": "[Fluorocytosine]", "cell-cell fusion (z-score)": "inactive: 1.3"},
      {"compound": "C=CC(C1=CC(=O)C=CC1=O)c1ccccc1", "note": "(stereo not drawn)", "cell-cell fusion (z-score)": "inactive: 2.06"},
      {"compound": "Cc1cc(/C=c2\\sc3nc4ccccc4n3c2=O)c(C)n1-c1ccccc1", "cell-cell fusion (z-score)": "inactive: 0.0413"},
      {"compound": "CO[C@H]1C[C@@H]2CC[C@@H](C)[C@@](O)(O2)C(=O)C(=O)N2CCCC[C@@H]2C(=O)OC([C@H](C)C[C@@H]2CC[C@@H](OC(=O)C(C)(CO)CO)[C@H](OC)C2)CC(=O)[C@H](C)/C=C(\\C)[C@@H](O)[C@@H](OC)C(=O)[C@H](C)C[C@H](C)/C=C/C=C/C=C/1C", "note": "(stereo partly drawn) [Temsirolimus]", "cell-cell fusion (z-score)": "inactive: 4.35"},
      {"compound": "Cl.Oc1cc2c(cc1O)C(c1ccccc1)CNCC2", "note": "(racemic)", "cell-cell fusion (z-score)": "inactive: -2.61"},
      {"compound": "CCOc1cc2ncc(C#N)c(Nc3ccc(OCc4ccccn4)c(Cl)c3)c2cc1NC(=O)/C=C/CN(C)C", "note": "[Neratinib (HKI-272)]", "cell-cell fusion (z-score)": "inactive: -0.807"},
      {"compound": "Cl.NC1(C(=O)O)CCCCC1", "note": "[1-Amino-1-cyclohexanecarboxylic acid hydrochloride]", "cell-cell fusion (z-score)": "inactive: 2.42"},
      {"compound": "CC(=O)OCC(=O)[C@H]1CCC2C3CC=C4C[C@@H](O)CC[C@]4(C)C3CC[C@@]21C", "note": "(stereo partly drawn)", "cell-cell fusion (z-score)": "inactive: 2.02"},
      {"compound": "Cc1onc(-c2ccccc2)c1-c1ccc(S(N)(=O)=O)cc1", "note": "[Valdecoxib]", "cell-cell fusion (z-score)": "inactive: 1.14"},
      {"compound": "N=C(N)NCCC[C@H](N)C(=O)O", "note": "[L-Arginine]", "cell-cell fusion (z-score)": "inactive: 1.11"},
      {"compound": "CCOc1cc(CC(=O)N[C@@H](CC(C)C)c2ccccc2N2CCCCC2)ccc1C(=O)O", "cell-cell fusion (z-score)": "inactive: 3.2"},
      {"compound": "CC/C=C\\CC1=C(C)CCC1=O", "cell-cell fusion (z-score)": "inactive: 2.05"},
      {"compound": "OC[C@H]1O[C@@H](c2nc3cc(Cl)c(Cl)cc3[nH]2)[C@H](O)[C@@H]1O", "note": "[D-ribofuranosylbenzimidazole]", "cell-cell fusion (z-score)": "inactive: 3.41"},
      {"compound": "CC(=O)O[C@@H]1C[C@@]23C[C@@]24CC[C@H](O[C@@H]2OC[C@@H](O)[C@H](O)[C@H]2O)C(C)(C)C4CCC3[C@]2(C)C[C@@H]3OC4(C[C@@H](C)[C@@H]3[C@@]12C)O[C@H](O)[C@]1(C)O[C@H]41", "note": "(stereo partly drawn)", "cell-cell fusion (z-score)": "inactive: 2.09"},
      {"compound": "C[C@@H](N)Cc1c[nH]cn1.Cl.Cl", "note": "[Histamine, R(-)-alpha-methyl-, dihydrochloride]", "cell-cell fusion (z-score)": "inactive: 2.47"},
      {"compound": "C=CCSCC=C", "cell-cell fusion (z-score)": "inactive: 1.91"},
      {"compound": "COc1cc2c(cc1OC)CC(=O)N(CCCN(C)C[C@H]1Cc3cc(OC)c(OC)cc31)CC2.Cl", "note": "[Ivabradine hydrochloride]", "cell-cell fusion (z-score)": "inactive: 2.07"},
      {"compound": "COc1c2ccoc2nc2c(OC)c(OCC(O)C(C)(C)O)ccc12", "note": "(stereo not drawn)", "cell-cell fusion (z-score)": "inactive: 2.35"},
      {"compound": "Nc1nc2[nH]c(=O)cnc2c(=O)[nH]1", "note": "[Isoxanthopterin]", "cell-cell fusion (z-score)": "inactive: 2.58"},
      {"compound": "NCCS(=O)O", "note": "[Hypotaurine]", "cell-cell fusion (z-score)": "inactive: 2.11"},
      {"compound": "O=C1c2ccc(O)c(O)c2C(=O)c2c(O)ccc(O)c21", "cell-cell fusion (z-score)": "inactive: 2.78"},
      {"compound": "COc1cc2nc(N3CCN(C(=O)C4CCCO4)CC3)nc(N)c2cc1OC.Cl", "note": "(stereo not drawn) [Terazosin hydrochloride]", "cell-cell fusion (z-score)": "inactive: 2.66"},
      {"compound": "CC(=O)NNC(=O)N1Cc2ccccc2Oc2ccc(Cl)cc21", "cell-cell fusion (z-score)": "inactive: 1.25"},
      {"compound": "CCCc1nn(C)c2c(=O)[nH]c(-c3cc(S(=O)(=O)N4CCN(C)CC4)ccc3OCC)nc12.O=C(O)CC(O)(CC(=O)O)C(=O)O", "note": "[Sildenafil citrate salt]", "cell-cell fusion (z-score)": "inactive: 1.72"},
      {"compound": "C=CCc1ccc(O)c(OC)c1", "cell-cell fusion (z-score)": "inactive: 0.484"},
      {"compound": "C[C@]12CCC(=O)C=C1CC[C@@H]1[C@@H]2[C@@H](O)C[C@@]2(C)[C@H]1CC[C@]2(O)C(=O)CO", "note": "[Hydrocortisone]", "cell-cell fusion (z-score)": "inactive: 1.99"},
      {"compound": "CCCc1nc(C(C)(C)O)c(C(=O)O)n1Cc1ccc(-c2ccccc2-c2nn[nH]n2)cc1", "cell-cell fusion (z-score)": "inactive: 3.78"},
      {"compound": "O=C1[C@H](CCC(O)c2ccc(F)cc2)[C@@H](c2ccc(O)cc2)N1c1ccc(F)cc1", "note": "(stereo partly drawn)", "cell-cell fusion (z-score)": "inactive: -1.41"},
      {"compound": "CC(C)COC(=O)c1ccc(N)cc1", "cell-cell fusion (z-score)": "inactive: 2.22"},
      {"compound": "O=C(O)[C@]1(Cc2cccc(Nc3nccs3)n2)CC[C@@H](Oc2cccc(Cl)c2F)CC1", "cell-cell fusion (z-score)": "inactive: 2.17"},
      {"compound": "COC(=O)C1=C(C)NC(C)=C(C(=O)OC)C1c1ccccc1[N+](=O)[O-]", "note": "[Nifedipine]", "cell-cell fusion (z-score)": "inactive: 0.598"},
      {"compound": "COc1cc2nccc(Oc3ccc(NC(=O)Nc4cc(C)on4)c(Cl)c3)c2cc1OC", "note": "[Tivozanib (AV-951)]", "cell-cell fusion (z-score)": "inactive: 1.39"},
      {"compound": "O=C(Nc1c(Cl)cncc1Cl)c1ccc(OC(F)F)c(OCC2CC2)c1", "note": "[Roflumilast]", "cell-cell fusion (z-score)": "inactive: 0.0496"},
      {"compound": "CC(C)/N=c1\\cc2n(-c3ccc(Cl)cc3)c3ccccc3nc-2cc1Nc1ccc(Cl)cc1", "cell-cell fusion (z-score)": "inactive: 2.32"},
      {"compound": "CNc1ccccc1C(=O)N1CCc2c([nH]c3ccccc23)C1=O", "cell-cell fusion (z-score)": "inactive: 3.64"},
      {"compound": "O=C(CCc1ccc(O)cc1)c1c(O)cc(O)cc1O", "note": "[Phloretin (Dihydronaringenin)]", "cell-cell fusion (z-score)": "inactive: 1.41"}
    ]}
  ]
}
